## Library screen at single concentrations

Amino acid sequences for entries named in this document (tags omitted). Residues count along the entry.
UniProt A4I591, 1-473: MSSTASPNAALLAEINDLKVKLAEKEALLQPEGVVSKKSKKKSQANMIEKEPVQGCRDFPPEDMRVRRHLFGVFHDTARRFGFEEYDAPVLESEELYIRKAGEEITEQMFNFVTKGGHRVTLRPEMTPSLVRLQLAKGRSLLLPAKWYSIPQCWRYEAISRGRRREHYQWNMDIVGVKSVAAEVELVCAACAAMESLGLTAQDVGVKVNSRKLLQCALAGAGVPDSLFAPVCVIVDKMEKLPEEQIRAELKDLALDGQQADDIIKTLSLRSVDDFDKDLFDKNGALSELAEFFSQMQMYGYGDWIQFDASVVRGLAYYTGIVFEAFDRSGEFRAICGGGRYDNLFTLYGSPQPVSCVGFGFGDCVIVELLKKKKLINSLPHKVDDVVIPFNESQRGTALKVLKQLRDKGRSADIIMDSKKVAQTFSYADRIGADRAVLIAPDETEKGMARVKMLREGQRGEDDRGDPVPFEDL
UniProt P9WFT3, whole entry: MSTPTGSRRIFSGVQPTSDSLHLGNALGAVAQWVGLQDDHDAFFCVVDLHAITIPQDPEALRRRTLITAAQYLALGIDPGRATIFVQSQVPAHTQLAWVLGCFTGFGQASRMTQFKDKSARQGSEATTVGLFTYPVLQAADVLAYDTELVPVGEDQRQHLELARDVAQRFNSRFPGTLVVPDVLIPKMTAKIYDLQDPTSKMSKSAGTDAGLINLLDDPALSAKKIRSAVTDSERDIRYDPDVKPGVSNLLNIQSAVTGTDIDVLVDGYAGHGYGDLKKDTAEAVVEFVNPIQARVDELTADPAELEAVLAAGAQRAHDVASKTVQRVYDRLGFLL

From ChEMBL document CHEMBL3988442, “University of Dundee, Small-Polar-MMV Screening Library” (2021).

A: 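Enzyme assay of histidyl-tRNA synthetase; the read-out is not stated. Target: Histidine-tRNA ligase, Leishmania infantum (UniProt A4I591). Tested at 30 µM. The record gives no direction; compounds that gave an IC50 in retests scored well above the rest, so higher reads as stronger inhibition. The assay is labelled LdHisRS but filed under L. infantum. About 69,000 compounds were tested under these conditions; 0.6% (about 410) showed 50% or more at least once.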
B: 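Whole-parasite assay of Trypanosoma brucei over 72 hours; the read-out is not stated. Compounds at 30 µM. Direction is inferred from retests: higher values go with stronger inhibition. Values scatter widely below zero; nearly all retest evidence comes from the higher of the two concentrations used. About 64,000 compounds were tested under these conditions; 1.5% (about 940) showed 50% or more at least once.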
C: 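Enzyme assay of tryptophanyl-tRNA synthetase; the read-out is not stated. Target: Tryptophan-tRNA ligase, Mycobacterium tuberculosis (UniProt P9WFT3). Compounds at 10 µM. Higher most likely means stronger inhibition; the record gives no direction and few retests gave an IC50. Of about 65,000 compounds tested this way, about 64 (0.098%) reached 50% or more in at least one test.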

Values are the deposited “Percent Effect”, in %. The controls that fix the scale are not given in the record; negative values are as filed. Compounds were drawn at random from those tested, without regard to their results.

* N#Cc1cnc(NC2CCN(C(=O)C3CCCCC3)CC2)c(Cl)c1 : A: 8.219%; B: -33.43%; C: 0%
* NC(=O)C1CCN(C(=O)NCCOc2ccc3c(c2)OCO3)C1 (stereo not drawn) : A: 7.692%; C: -6.381%
* CC(NCc1ccc(C(C)(C)C)cc1)c1ccc(S(C)(=O)=O)cc1 (stereo not drawn) : A: 27.4%; B: 8.126%; C: -3.725%
* COCCNS(=O)(=O)c1cccc(CSC)c1 : A: -1.77%; C: 2.724%
* Nc1ccnc(N2CCC(Cc3ccccc3Cl)(C(=O)O)CC2)n1 : A: 11.43%; B: -55.78%; C: -3.339%
* CC1(C)[C@H](Cc2cc(CO)on2)C[C@@H]1NCc1ccc(CO)o1 : A: -1.351%; B: -46.64%; C: 5.387%
* [H][C@@]12C[C@@H](O)CN1C[C@@H](Cc1ccccc1)N(Cc1ccccc1)C2 : B: -9.579%
* CNC(=O)c1cn(C(C)(C)C)c2ncccc12 : A: 17.82%; B: -3.596%
* O=C(O)C(F)(F)F.[H][C@@]12CN(CC(C)C)C[C@]1([H])C(=O)N(CC)C21CCN(C(=O)NC(C)C)CC1 : B: -35.34%
* CNS(=O)(=O)c1ccc(CNC(=O)N(C)CC(O)COC)cc1 (stereo not drawn) : A: 12.35%; B: -31.84%; C: 0.7712%
* CC(C)n1c(=O)c2ccccc2n(CCCN(C)C)c1=O.Cl : B: 2.697%
* CC1(C(=O)NCCN2CCCCC2)CCCN1C(=O)c1ccccc1 (stereo not drawn) : A: 10.96%; B: -22.5%; C: 2.683%
* CCNC(=O)[C@@H]1C[C@@H](NC(=O)c2ccc(C)cc2O)CN1CCCSC : A: 20.21%; B: -14.28%; C: 7.479%
* O=C(CN1CCN(CC(O)C2CC2)CC1)NCc1ccccc1 (stereo not drawn) : A: 9.589%; C: 3.053%
* Cc1nc(C2CCCN(C(=O)c3c(C)nn4cccnc34)C2)no1 (stereo not drawn) : A: 0%; B: -8.683%; C: -2.077%
* CN1CCN(C(=O)[C@H]2C[C@H]3[C@H](CCN3Cc3cccs3)O2)CC1 : A: 15.38%
* Cc1cc(N2CCSCC2)ccc1NC(=O)N(CCO)C1CC1 : A: 16.88%; B: 6.746%; C: -2.103%
* Cc1ncsc1CN1CCn2c(COCC3CC3)cnc2C1C.O=C(O)C(F)(F)F (stereo not drawn) : B: -7.975%
* Cn1cc(CN2CCCN(C(=O)c3ccccn3)CC2)cn1 : A: 8.333%; B: -1.393%; C: 10.03%
* O=C(NCC1(O)CCOC1)NCC1(c2ccccc2Cl)CC1 (stereo not drawn) : A: 7.692%; C: -4.204%
* Cc1cccnc1NC(=O)CSc1ccc2c(c1)OCCO2 : A: 6.731%; B: -20.47%; C: -4.739%
* COCCN1CCC(C(=O)N(C)CCOc2ccc(C)cc2Cl)C1 (stereo not drawn) : A: 3.968%; B: -46.79%; C: -1.27%
* Cc1cccc(CO[C@H]2CN(c3nnc(C)s3)[C@@H]3CCCO[C@H]23)n1 : A: 24.32%; C: 3.432%
* Cc1ccc(C(=O)N2CCC(C(F)(F)F)CC2)cc1N1CCNC1=O : A: 15.62%; B: 15.04%; C: -2.829%
* CCc1ccc(S(=O)(=O)N2CC[C@@](O)(CCOC)[C@H](C)C2)cc1 : A: 14.4%; B: -12.35%; C: -2.257%
* Cc1nc(NC(=O)C(C)S(C)(=O)=O)sc1Cc1ccccc1F (stereo not drawn) : A: 14.29%; B: 15.72%; C: -2.015%
* CN(C)CCO[C@H]1CN(Cc2cccc(C#N)c2)[C@@H]2COC[C@H]12 : A: 18.87%; C: -1.574%
* Cc1cc2ccccc2n1CCC(=O)N1CCCCC1CCO (stereo not drawn) : A: 16.53%; B: 18.53%; C: 1.383%
* Cc1nc(N2CC[C@@H](c3ccc4ccccc4c3)[C@H](O)C2)no1 : A: 14.52%; B: -17.03%; C: -2.102%
* Cc1ccc(S(=O)(=O)N2C[C@H]3C[C@H](NC(=O)c4cc(C)no4)[C@H]3C2)cc1 : A: 10%
* CC(C)NC(=O)N1CCC(c2nccn2C(C)C)CC1 : A: 16.8%; B: -19.17%; C: -2.826%
* CN1CCCN(c2ccc(F)cc2CNC(=O)c2ccsc2)CC1 : A: 10%; B: -36.86%; C: -1.212%
* O=C(O)C(F)(F)F.O=C(c1ccoc1)N1CCO[C@]2(CCC[C@H]2COCc2cccnc2)C1 : B: -7.693%
* CS(=O)(=O)N1CCOCC2(CCN(Cc3ccoc3)CC2)C1.O=C(O)C(F)(F)F : B: -34.58%

3 of the entries, repeated:

* CNC(=O)c1cn(C(C)(C)C)c2ncccc12 | A: 17.82%; B: -3.596%
* CC(NCc1ccc(C(C)(C)C)cc1)c1ccc(S(C)(=O)=O)cc1 (stereo not drawn) | A: 27.4%; B: 8.126%; C: -3.725%
* Cc1nc(C2CCCN(C(=O)c3c(C)nn4cccnc34)C2)no1 (stereo not drawn) | A: 0%; B: -8.683%; C: -2.077%